The supplement of paper PMC4635364
This is one part of the list. Single values are uncertain here, since repeats match poorly.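 Human fetal ventral-midbrain neural progenitor line ReNCell VM, differentiated without mitogens. Images stained for doublecortin (early neurons) or tyrosine hydroxylase (dopaminergic neurons) were scored by blinded raters against untreated wells (0 = no change). Repeats and both raters were averaged, and compounds averaging 2 or higher were picked as hits for retesting.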

tested on: ReNCell VM; assay: dopaminergic neuron differentiation score (TH+ cell fraction vs untreated, manual image score) (score (0 to 3)); higher = more TH+ dopaminergic neuron differentiation; conditions: library: Spectrum; 2 uM; 4 weeks; BDNF 10 ng/ml + GDNF 10 ng/ml

Dopaminergic neuron differentiation score, inactive:
CC1(C)OC(=O)NC1=O 0
CNc1ccccc1C(=O)N1CCc2c([nH]c3ccccc23)C1=O 0
CC1=C(C)C(=O)C(C(CCCCCC(=O)O)c2ccccc2)=C(C)C1=O (configuration not stated) 0
O=C(O)/C=C/c1ccc(O)c(O)c1 0
CCOC(=O)c1ccc(O)cc1 0
CN(C)CCCOc1nn(Cc2ccccc2)c2ccccc12 0
CCCCOc1ccc(OCCCN2CCOCC2)cc1 0
CC[C@H]1OC(=O)[C@H](C)C(=O)[C@H](C)[C@@H](O[C@@H]2O[C@H](C)C[C@H](N(C)C)[C@H]2O)[C@](C)(OC)C[C@@H](C)C(=O)[C@H](C)[C@H]2N(CCCCn3cnc(-c4cccnc4)c3)C(=O)O[C@]12C 0
COc1ccc(-c2c(O)c3c(OC)c4c(cc3oc2=O)OC(C)(C)C=C4)cc1 0
COc1cc2oc3cc(OC)c(OC)c(CC=C(C)C)c3c(=O)c2c(O)c1CC=C(C)C 0
COc1ccccc1OCCNCC(O)COc1cccc2[nH]c3ccccc3c12 (configuration not stated) 0
COc1ccc(C(=O)c2ccccc2)c(O)c1 0
Cc1cn[nH]c1 0
Nc1nc(=O)c2c([nH]1)NCC(CNc1ccc(C(=O)N[C@@H](CCC(=O)O)C(=O)O)cc1)N2C=O (some centres not stated) 0
CC(=O)c1c(O)cc(O)cc1O 0
Cc1ncc([N+](=O)[O-])n1CC(C)O (configuration not stated) 0
NC[C@H]1O[C@H](O[C@H]2[C@H](O)[C@@H](O[C@H]3O[C@H](CO)[C@@H](O)[C@H](N)[C@H]3O)[C@H](N)C[C@@H]2N)[C@H](N)[C@@H](O)[C@@H]1O 0

2 records drawn at random from the list so far, as already listed:
Dopaminergic neuron differentiation score, inactive:
Cc1ncc([N+](=O)[O-])n1CC(C)O (configuration not stated) 0
O=C(O)/C=C/c1ccc(O)c(O)c1 0
